Source: PubChem BioAssay AID1347076 (National Center for Advancing Translational Sciences (NCATS), 2019)
About 13,000 (3.2%) of roughly 400,000 compounds were called active. Inconclusive results, whose numbers are uncertain, are shown with a selection of clear calls. Calls come from the whole dose curve; as a rule, active = well fitted cell-killing curve with a large enough effect; inconclusive = small, poorly fitted or top-dose-only effect, or effect the other way; inactive = flat fitted curve, though single readings scatter. Where the call is inconclusive, the potency comes from a doubtful curve fit.

Experiment: qHTS assay for MDR1-selective chemotherapeutics: Primary screen using the drug-selected MDR subline cells KB-V1; note: nearly all actives have a fitted effect of over 60% in size
Details: KB-V1 MDR cells viability, CellTiter-Glo, 72 h; activity change, negative = cytotoxicity: at 46.1 µM (top of the series)
Summary of the method: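 KB-V1 MDR subline cells in DMEM (phenol-red free, 10% FBS) exposed to compounds in qHTS concentration series for 72 h at 37 degrees C. Viability read by CellTiter-Glo luminescence; concentration-effect curves fitted after normalization and correction.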
% is set by controls: 0 for no effect and ±100 for the full control effect; potency is the fitted concentration of half-maximal effect.

| Structure (SMILES) | Potency | activity change, negative = cytotoxicity |
| --- | --- | --- |
| CCOc1ccc(-c2ccc(SC)nn2)cc1 | active: 11.6 µM | – |
| C#CCOCCOCCOCCNc1nc(N2CCN(C(=O)CCCCCCCCCCNC(=O)Cn3cc(C[C@@H](C)O)nn3)CC2)nc(N2CCN(C(=O)CCCCCCCCCCNC(=O)[C@@H](CCSC)n3cc(CCO)nn3)CC2)n1 | – | inactive: 0% |
| Cn1c(=O)cc(SCC(=O)N2CCCC2)c2cc(Cl)ccc21 | inconclusive: 12.6 µM [cytotoxic, single point] | – |
| CC(=O)Nc1ccc(/C=C2\CCc3ccccc3C2=O)cc1 | inconclusive: 32.6 µM [rising, partial curve, poor fit] | – |
| O=C(NC1CCCC1)C(c1ccc(F)cc1)N1CCC(O)(c2ccc(Cl)cc2)CC1 (stereo unspecified) | inconclusive: 5.17 µM [cytotoxic, partial curve, poor fit] | – |
| COC(=O)CCCCCn1c(-c2ccccc2)cn2c3c(=O)n(C)c(=O)n(C)c3nc12 | – | inactive: 4.77% |
| C/C(=N\NC(=O)CSCc1ccc([N+](=O)[O-])cc1)c1ccccc1 | inconclusive: 0.184 µM [cytotoxic, full curve] | – |
| O=C(Nc1cccc(F)c1)C1CCCCC1 | inconclusive: 29.1 µM [cytotoxic, single point] | – |
| O=[N+]([O-])c1cc(F)c(N2CCOCC2)cc1N1CCCCC1 | inconclusive: 25.9 µM [cytotoxic, single point] | – |
| Cc1cccc(CCn2c(=O)c3ccccc3n(CC(=O)Nc3ccccc3F)c2=O)c1 | – | inactive: 13.5% |
| O=C(Nc1ccccc1N1CCCC1)C1CCN(C(=O)c2ccc(F)cc2)CC1 | inconclusive: 11.6 µM [cytotoxic, partial curve] | – |
| c1ccc2c(c1)oc1c(Nc3ccc4c(c3)OCCO4)ncnc12 | inconclusive: 13 µM [cytotoxic, partial curve] | – |
| CC(Oc1ccc(Cl)cc1Cl)C(=O)NCc1ccncc1 (stereo unspecified) | active: 20.6 µM | – |
| COc1cc(/C=N/N=C(\N)c2nonc2N)cc(OC)c1OC | inconclusive: 18.4 µM [cytotoxic, partial curve, poor fit] | – |
| Cc1cc2c(cc1NC(=O)c1ccccc1Cl)n(C)c(=O)c(=O)n2C | – | inactive: 7.87% |
| CCn1c2ccccc2c2nc3cc(OC)c(OC)cc3nc21 | active: 2.06 µM | – |
| CCOC(=O)c1c(C)[nH]c(C2=NNC(=Nc3ccccc3)SC2)c1C | inconclusive: 29.1 µM [cytotoxic, single point] | – |
| CC(C)CCNC(=O)[C@@H](NC(=O)c1c(F)cccc1F)C(C)C | inconclusive: 10.3 µM [cytotoxic, partial curve, poor fit] | – |
| CCCCSc1nnc(CSc2nc3nc(C)cc(C)n3n2)o1 | inconclusive: 5.17 µM [cytotoxic, full curve] | – |
| COc1ccc(C=NN=C2c3ccccc3-c3ccccc32)cc1O | inconclusive: 16.4 µM [cytotoxic, partial curve, poor fit] | – |
| Cc1ccc(N(C(=O)Cc2c[nH]c3ccccc23)C(C(=O)NC2CCCCC2)c2ccco2)cc1 (stereo unspecified) | active: 16.4 µM | – |
| COc1cc(/C=C/C(=O)OCC(=O)Nc2nnc(-c3ccccc3)o2)cc(OC)c1OC | active: 11.6 µM | – |

| Structure (SMILES) | Potency | activity change, negative = cytotoxicity |
| --- | --- | --- |
| COc1ccc(OC)c(C(=O)CSc2ncc3c(n2)-c2ccccc2N(Cc2ccccc2C)S3(=O)=O)c1 | inconclusive: 8.2 µM [rising, partial curve, poor fit] | – |
| Cc1ccc2c(CN(C)Cc3ccccc3)cc(=O)oc2c1C | inconclusive: 29.1 µM [cytotoxic, single point] | – |
| C/C(=N/NC(=O)C1CCN(S(=O)(=O)c2ccc(C)cc2)CC1)c1cccc([N+](=O)[O-])c1 | active: 23.1 µM | – |
| Cc1ccc(C)c(N2CCN(CCCNC(=O)c3cnn(-c4ccccc4)c3C3CCN(C(=O)OC(C)(C)C)CC3)CC2)c1 | inconclusive: 25.9 µM [cytotoxic, single point] | – |
| CCCCNC(=O)CCn1ccc2cc(S(=O)(=O)N3CCCC3)ccc21 | inconclusive: 0.092 µM [rising, full curve, poor fit] | – |
| CCN(Cc1ccccc1)Cc1c(O)ccc2c(=O)c(-c3ccc(Cl)cc3)c(C(F)(F)F)oc12 | inconclusive: 32.6 µM [rising, partial curve, poor fit] | – |
| Cc1ccc(Cn2c(=O)c3ccccc3n3nc(C)cc23)cc1 | inconclusive: 11.6 µM [cytotoxic, partial curve, poor fit] | – |
| Cc1ccc(S(=O)(=O)N(C)c2ccc(OC(=O)c3cccs3)cc2)cc1 | – | inactive: -7.85% |
| CCN(CC)S(=O)(=O)c1ccc2oc(C(=O)N3CCCCCC3)c(C)c2c1 | inconclusive: 23.1 µM [cytotoxic, single point] | – |
| Nc1cccc(-n2cccc2)c1 | inconclusive: 0.164 µM [cytotoxic, full curve] | – |
| COc1ccc(C2C(CN3CCOCC3)C(=O)N2c2ccccc2)cc1 (stereo unspecified) | inconclusive: 8.2 µM [cytotoxic, partial curve] | – |
| O=C(CCSCc1ccccc1F)NCCc1ccccc1 | inconclusive: 11.6 µM [rising, partial curve, poor fit] | – |
| C[C@H](CO)N1C[C@H](C)[C@H](CN(C)Cc2ccc(-c3ccccc3)cc2)Oc2ccc(NS(=O)(=O)c3ccccc3)cc2CC1=O | inconclusive: 29.1 µM [cytotoxic, single point] | – |
| O=C(Nc1ccc2c(c1)OCO2)c1cc(C2CCCCN2S(=O)(=O)c2cccs2)on1 (stereo unspecified) | – | inactive: 2.41% |
| CC(C)(CNC(=O)Cc1ccc(Cl)cc1Cl)N1CCCCC1 | inconclusive: 23.1 µM [cytotoxic, single point] | – |
| COCCN(C(=O)COC(=O)/C=C/c1cccc(C(F)(F)F)c1)c1c(N)n(CC(C)C)c(=O)[nH]c1=O | inconclusive: 7.31 µM [rising, partial curve] | – |
| COc1ccc(-n2cnnc2SC(C)C(=O)Nc2cccc([N+](=O)[O-])c2)cc1 (stereo unspecified) | inconclusive: 16.4 µM [cytotoxic, single point] | – |
| N#CCc1nc2c3c4c(sc3ncn2n1)CCCC4 | inconclusive: 0.651 µM [cytotoxic, full curve, poor fit] | – |
| O=C(/C=C/c1ccccc1Cl)NNC(=O)c1ccncc1 | – | inactive: 15.8% |
| COc1ccccc1CN1CCNC(=O)C1CC(=O)O (stereo unspecified) | inconclusive: 29.1 µM [rising, single point] | – |
| CC1CCN(S(=O)(=O)c2ccc3nc(NCc4ccccc4)ccc3c2)CC1 | inconclusive: 18.4 µM [cytotoxic, partial curve, poor fit] | – |
| CSc1ccccc1NC(=O)c1ccccc1N(Cc1ccccc1)S(C)(=O)=O | active: 9.2 µM | – |

| Structure (SMILES) | Potency | activity change, negative = cytotoxicity |
| --- | --- | --- |
| O=C(COC(=O)/C=C/c1cccc(C(F)(F)F)c1)Nc1ccc(Cl)cn1 | inconclusive: 23.1 µM [rising, single point] | – |
| O=C(CCC(=O)Nc1ccccc1Cl)NNC(=O)COc1ccc([N+](=O)[O-])cc1 | inconclusive: 16.4 µM [rising, partial curve] | – |
| OCC1(Cc2ccccc2)CCCN(Cc2ccc3c(c2)OCCO3)C1 (stereo unspecified) | – | inactive: 15.9% |
| COc1ccc(-n2ncc(C(C)NS(=O)(=O)c3ccc(C)s3)c2C)cc1 (stereo unspecified) | inconclusive: 7.31 µM [cytotoxic, partial curve] | – |
| CN(CCC#N)c1ccc(/C=C/c2ccnc3ccccc23)cc1 | inconclusive: 29.1 µM [cytotoxic, single point] | – |
| O=C(O)c1oc2ccccc2c1CSc1ccccn1 | inconclusive: 13 µM [rising, partial curve] | – |
| CCOC(=O)c1cc2c(=O)n3ccccc3nc2n(CCCOC)c1=NC(=O)C(C)(C)C | – | inactive: -0.228% |
| Cc1ccc(-c2nnc3ccc(SCC(=O)N4CCCc5ccccc54)nn23)cc1 | active: 16.4 µM | – |
| CCCCN(CC)CCCNC(=O)c1cc2c(=O)n(CC)c3ccccc3c2s1 | – | inactive: -15.2% |
| CCCCCCCCC(=O)N/N=C(\C)c1ccc(O)cc1O | inconclusive: 6.51 µM [cytotoxic, full curve, poor fit] | – |
| CC1CN(c2ncnc3c2oc2ccccc23)CC(C)O1 (stereo unspecified) | inconclusive: 18.4 µM [cytotoxic, partial curve] | – |
| CCCC(=O)Nc1ccc(S(=O)(=O)Nc2cc(OC)ncn2)cc1 | inconclusive: 29.1 µM [rising, single point] | – |
| O=C(Cn1nc(-c2ccc(Cl)cc2)c2ccccc2c1=O)Nc1cccc(C(F)(F)F)c1 | – | inactive: -28.6% |
| CCOc1ccc(N(C)S(=O)(=O)c2ccc(C)c(C(=O)N3CCN(Cc4ccc5c(c4)OCO5)CC3)c2)cc1 | – | inactive: -3.83% |
| Cc1cccc2[nH]c(CCNC(=O)C3CCC(=O)N(CCc4cccc(F)c4)C3)nc12 (stereo unspecified) | inconclusive: 3.26 µM [rising, full curve, poor fit] | – |
| C/C(=N/NC(=O)c1cc2ccccc2cc1O)c1ccco1 | inconclusive: 29.1 µM [cytotoxic, single point] | – |
| CC(C)(C)c1ccc(-n2ncc3c2CCCC3NC(=O)CCN2CCCCC2=O)cc1 (stereo unspecified) | inconclusive: 6.51 µM [cytotoxic, partial curve] | – |
| COC(=O)c1ccc(NC(=O)Cn2c([N+](=O)[O-])cnc2C)cc1 | – | inactive: 9.37% |
| Cc1ccc(-c2nnn(CC(=O)N(c3ccccc3)C(C(=O)NCC3CCCO3)c3ccc(F)cc3)n2)o1 (stereo unspecified) | – | inactive: 3.33% |
| CCOC(=O)/C=C1\CN(CCC(C)C)S(=O)(=O)c2ccccc21 | – | inactive: 12.4% |
| C=CCn1c(SCC(=O)N(CCO)CCO)nc2sc3c(c2c1=O)CCC3 | inconclusive: 20.6 µM [rising, single point] | – |
| CCc1ccc2oc(-c3ccc(NC(=O)c4cc5ccccc5o4)cc3)nc2c1 | inconclusive: 2.31 µM [cytotoxic, partial curve, poor fit] | – |

4 consecutive compounds already listed:

| Structure (SMILES) | Potency | activity change, negative = cytotoxicity |
| --- | --- | --- |
| CC(=O)Nc1ccc(/C=C2\CCc3ccccc3C2=O)cc1 | inconclusive: 32.6 µM [rising, partial curve, poor fit] | – |
| O=C(NC1CCCC1)C(c1ccc(F)cc1)N1CCC(O)(c2ccc(Cl)cc2)CC1 (stereo unspecified) | inconclusive: 5.17 µM [cytotoxic, partial curve, poor fit] | – |
| COC(=O)CCCCCn1c(-c2ccccc2)cn2c3c(=O)n(C)c(=O)n(C)c3nc12 | – | inactive: 4.77% |
| C/C(=N\NC(=O)CSCc1ccc([N+](=O)[O-])cc1)c1ccccc1 | inconclusive: 0.184 µM [cytotoxic, full curve] | – |
